The record followed here is PMC4904373, “Azole Antifungal Sensitivity of Sterol 14α-Demethylase (CYP51) and CYP5218 from Malassezia globosa” (Scientific Reports, 2016).

This data set concerns M. globosa ATCC MYA-4612. Put plainly: M. globosa MIC100 determination. In kind it is cell-based, Malassezia globosa. Particulars: based on MIC100. Here is the method:
M. globosa ATCC MYA-4612 was grown for 7 days at 30 °C in modified Dixon medium (3.6% malt extract, 2% desiccated ox-bile, 1% Tween 40, 0.6% peptone, 0.2% glycerol, 0.2% oleic acid, pH adjusted to 6 with HCl) until a culture density of 1.5 × 10^5 cells ml^−1 was obtained. Cells from 3 ml of stock culture were harvested, suspended in 1 ml of saline and used to inoculate 30 ml of fresh modified Dixon medium for use as M. globosa inoculums in MIC determinations. Stock azole concentrations of 1600, 800, 400, 200, 100, 50, 25, 12.5, 6.25, 3.125 and 0 μg ml^−1 were prepared in DMSO. These were diluted ten-fold with fresh modified Dixon media and 20 μl of the diluted azole solutions were then mixed with 180 μl of M. globosa inoculum in microtiter plate wells to yield final azole concentrations of 16, 8, 4, 2, 1, 0.5, 0.25, 0.125, 0.0625, 0.03125 and 0 μg ml^−1. The microtiter plates were incubated at 30 °C for 7 days and then read. Each azole MIC100 determination was performed in triplicate.

As to `CC(=O)N1CCN(c2ccc(NCC3COC(Cn4ccnc4)(c4ccc(Cl)cc4Cl)O3)cc2)CC1` (stereo not drawn) [ketaminazole], the “fold less effective than itraconazole at arresting M. globosa growth” value is 128 fold and the “fold less effective than ketoconazole at arresting M. globosa growth” value was ~ 32 fold. For the same compound, where the note is “listed as Ketaminazole”, the “fold less effective than ketoconazole at arresting M. globosa growth” value was 32 fold.
